The text below walks through data of patent US20090280123A1.

By UniProt entry, the sequences of proteins in these tests, tags left out.
UniProt P03372: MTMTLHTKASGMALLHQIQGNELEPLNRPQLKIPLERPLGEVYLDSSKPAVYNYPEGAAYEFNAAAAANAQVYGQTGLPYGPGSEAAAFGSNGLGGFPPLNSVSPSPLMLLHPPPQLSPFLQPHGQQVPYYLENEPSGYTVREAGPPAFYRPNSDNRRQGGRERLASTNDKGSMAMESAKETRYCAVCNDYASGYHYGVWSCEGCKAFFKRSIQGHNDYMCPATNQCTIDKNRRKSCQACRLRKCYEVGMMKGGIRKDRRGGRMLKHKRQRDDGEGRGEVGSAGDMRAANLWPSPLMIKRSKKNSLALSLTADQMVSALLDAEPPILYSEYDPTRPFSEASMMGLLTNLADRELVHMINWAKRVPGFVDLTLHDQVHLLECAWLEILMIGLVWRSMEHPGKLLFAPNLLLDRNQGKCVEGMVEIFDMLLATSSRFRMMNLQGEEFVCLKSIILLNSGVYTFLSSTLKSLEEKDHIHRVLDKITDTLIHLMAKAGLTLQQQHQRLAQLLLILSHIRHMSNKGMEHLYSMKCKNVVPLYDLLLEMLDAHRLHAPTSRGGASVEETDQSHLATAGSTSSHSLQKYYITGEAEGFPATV

Test [1] has as its target ERα 66 kDa (UniProt P03372). Put plainly: co-immunoprecipitation from co-transfected COS-7 lysate.
In test [2] the target is ERα 66 kDa (UniProt P03372). As to the kind of experiment: co-immunoprecipitation from co-transfected COS-7 lysate (IP anti-MS-KIF18A or anti-His, Western blot anti-ERα). In general terms: In western blotting, separated proteins are transferred to a membrane and probed.

Results are given in words; binding and its absence hold for the method and conditions named. Binding seen in cells or lysates may run through a third protein. Some results given as binding are weak or reduced against the parent protein; the word gives no strength. Where a sequence is shown, tags or fusion partners need not be part of it.

B1: His-MS-KIF18A (protein, not shown: small tags and cut ends)
chain: MSVTEEDLCHHMKVVVRVRPENTKEKAAGFHKVVHVVDKHILVFDPKQEEVSFFHGKKTTNQNVIKKQNKDLKFVFDAVFDETSTQSEVFEHTTKPILRSFLNGYNCTVLAYGATGAGKTHTMLGSADEPGVMYLTMLHLYKCMDEIKEEKICSTAVSYLEVYNEQIRDLLVNSGPLAVREDTQKGVVVHGLTLHQPKSSEEILHLLDNGNKNRTQHPTDMNATSSRSHAVFQIYLRQQDKTASINQNVRIAKMSLIDLAGSERASTSGAKGTRFVEGTNINRSLLALGNVINALADSKRKNQHIPYRNSKLTRLLKDSLGGNCQTIMIAAVSPSSVFYDDTYNTLKYANRAKDIKSSLKSNVLNVNNHITQYVKICNEQKAEILLLKEKLKAYEEQKAFTNENDQAKLMISNPQEKEIERFQEILNCLFQNREEIRQEYLKLEMLLKENELKSFYQQQCHKQIEMMCSEDKVEKATGKRDHRLAMLKTRRSYLEKRREEELKQFDENTNWLHRVEKEMGLLSQNGHIPKELKKDLHCHHLHLQNKDLKAQIRHMMDLACLQEQQHRQTEAVLNALLPTLRKQYCTLKEAGLSNAAFESDFKEIEHLVERKKVVVWADQTAEQPKQNDLPGISVLMTFPQLGPVQPIPCCSSSGGTNLVKIPTEKRTRRKLMPSPLKGQHTLKSPPSQSVQLNDSLSKELQPIVYTPEDCRKAFQNPSTVTLMKPSSFTTSFQAVSSNINSDNCLKMLCEVAIPHNRRKECGQEDLDSTFTICEDIKSSKCKLPEQESLPNDNKDILQRLDPSSFSTKHSMPVPSMVPSYMAMTTAAKRKRKLTSSTSNSSLTADVNSGFAKRVRQDNSSEKHLQENKPTMEHKRNICKINPSMVRKFGRNISKGNLR
Regarding B1, the binding entry with ERα 66 kDa [1] and in the test with ERα 66 kDa [2] was “binds” throughout.
